# Laboratory results: PubChem BioAssay AID1508600 (Functional Genomics Laboratory (NCATS/FGL), 2020)
# Hit rate of the full screen: of about 53,000 sequences, about 3,700 (7%) were called active.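 The calls were made as follows: active = gene knockdowns whose robust z-score for IL-1 alpha signal is at least 2 or at most -2, so actives lie on both sides; inactive = the rest.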 The list shows a part of the results.
# Test: Components of the Cytosolic LPS Sensing Pathway: Gene Identification via Genome-wide siRNA Screen;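 also: robust z of the log signal after scaling to non-targeting control siRNA wells of the plate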
# Conditions: RAW264.7 macrophages, IL-1a HTRF, actives lie on both sides, screened at 100 nM (by protocol), cells primed 5 h with Pam3CSK4 first
# How it was run: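 Cells (RAW264.7, 1×10^4 per well) were transfected with siRNA at 100 nM and cultured 48h at 37 degrees C. Pam3CSK4 was added for 5 hours; LipidA transfection followed for 24 hour. IL-1a was then measured by HTRF.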
row,Sequence,z-score
1,GGAAAACAAGAGGUGAUCUTT against Bfar,inactive: -1.62
2,GCUAUGGCGCAUACUGCCATT against Olfr881,inactive: 0.803
3,GCCACUGCACUAUUUAACUTT against Olfr1247,inactive: -0.35
4,GGAAUAAAGAUUCCUCACATT against Teddm1a,inactive: 0.113
5,CGGAGUCUUCUUCUCACCUTT against A630001O12Rik,active: -2.82
6,GGAUGAGGAAUUUUACACUTT against Klhl11,inactive: -0.256
7,GGGAUGCGAGAUGAUCUGCTT against Scrg1,inactive: 0.172
8,AGUCAAGACCCAUAGAAAATT against Ociad2,inactive: -1.87
9,GAGUGUCAGGUCCAAGUUATT against Vmn1r80,inactive: 1.54
10,CCUUGUGGAUUCUCACUACTT against Gpn2,inactive: -1.91
11,CCUUUGGACUGUACCACCUTT against Zfp869,inactive: 0.723
12,CGAGUUUAAGGACAUCGAATT against Gjb2,inactive: 0.694
13,CCAUGUUCGGACGUGGUCUTT against Shkbp1,inactive: -1.17
14,GGAUCUGAGAUUGACCAAGTT against Usp1,inactive: 0.994
15,GCCGAGUCUCAGCUUGUAATT against Dnajc3,inactive: 0.258
16,GCUUAUGAGUUAUAUUGCATT against Olfr894,inactive: -0.0213
17,CCACUUUAUGGCCAGCCUUTT against Nr2e3,inactive: -0.983
18,CCGACCUCAACUUCAACGATT against Arhgap23,inactive: -0.391
19,GAGCUGUGAAUGCCUGUGGTT against Lyz2,active: -2.33
20,GGUUACUAGAAAAGUGUUGTT against Olfr1489,inactive: 1.41
21,GGGUCAAUUUCUCAUGCCUTT against Icam5,inactive: -0.717
22,CCCACAGAAUUUGGACAUATT against Ptcra,inactive: 1.17

row,Sequence,z-score
1,GGUCGACGUGGACUUGACATT against Art4,inactive: -1.34
2,GCGACCCUUCCAUUGUAUUTT against Vsnl1,inactive: 0.324
3,AUGUGACUGGCUUUACAUUTT against Muc4,inactive: -0.506
4,CGACUGGAUACCAAAUUACTT against Mtrex,inactive: -1.21
5,GGAAAGAAGAUCGAUUACATT against Atp11c,active: 2.22
6,GGCCGUAGGACAGUAUACATT against Wnt5a,inactive: -1.14
7,GGACAAUACGGAGAAAGAUTT against Mdfic,inactive: -0.522
8,GGUAACACUAUCAAGUCUUTT against Txndc2,inactive: 0.0141
9,GGCAGCCAUAAUCACAAUGTT against Krtap4-16,inactive: 1.29
10,CCUUAUUUUACGGAACUGCTT against Olfr1018,active: 2.11
11,CGGCAGAGCCAGAUAUGAUTT against Mzf1,inactive: 0.0234
12,GUACCUCUUUUUGUAAUGUTT against Olfr235,inactive: -0.155
13,GGCUAAGGAAUGUCAAUAATT against Dnajc5g,inactive: 0.0787
14,GCUCGAUUCAGAAAUCUACTT against Sgce,inactive: -0.735
15,GGCAUCUUUCAUAAAACCGTT against Atad3aos,inactive: -0.622
16,CCAAAUAUUACAAACUCGGTT against Sgk1,inactive: -0.623
17,GGUGUUUGAGCAUAUUGGATT against Cat,inactive: -0.128
18,GGAAGUUUUAUAGACAAACTT against Zc2hc1c,inactive: -0.772
19,GCAGUAAGUCAGUGCCUCATT against Atxn1,inactive: 1.51
20,CGUAUAUGAUCUGCAUCAUTT against Utp4,inactive: -0.326
21,GCCUCUCCUGUGAAUGACATT against Erlec1,inactive: -0.699
22,GCUAUGUGUGGCUAAGUUATT against Usp9x,inactive: 0.414

row,Sequence,z-score
1,CCCUUCUGUAAACACCACATT against Aldh3b3,inactive: -1.78
2,GGAUCUGGCCCAAUAUUGUTT against Prss12,inactive: -0.802
3,GUUGAGGACUUCUUGCUGGTT against Spg7,inactive: -1.87
4,GCACAAGGUGUUUCAUUAATT against Spaar,inactive: -1.3
5,GGAAAAUUACCAGAGCACCTT against Ntf3,inactive: 0.704
6,GGAUGAAAAAUACUGGUGUTT against Ugt8a,inactive: 0.356
7,GGCAAACGAGAAGAAGGAGTT against Serf2,inactive: -1.78
8,GGAAGAAGAUAAAGAGAAATT against Gtf2a1,inactive: 1.09
9,CCGAUGGUCGCACUUCUUATT against Olfr560,inactive: -1.45
10,GCUAAAAUUAGAGUGUCUGTT against Gtf2h2,inactive: -0.278
11,GGACUGUAUGUGGAAUGGCTT against Bmyc,inactive: -0.46
12,CCAUUGAGGGAAAUAAACUTT against Fabp2,inactive: -1.64
13,GGCCAAAUUUUCCUUCCAATT against Casd1,inactive: 0.744
14,GGAUUUAUAUCUGAAGUCUTT against Bach1,inactive: 0.248
15,ACGUGGAAUCUGCUGUAAUTT against Tcaim,inactive: 0.106
16,GGCUGCCUGUGCUAAAAUGTT against Rbm15b,inactive: -0.153
17,GCCUAUUGUAGUGUUACAUTT against Cyp2c67,inactive: -0.887
18,GCCAAGUAUUUUAAUGCAATT against Fuca2,inactive: -0.611
19,GGCUGCUCCACCCUAUAAUTT against Sugt1,inactive: 0.135
20,GGGUUUCAGUCUUCUUAUCTT against Olfr556,inactive: -0.891
21,GGUGUCGAGAAGCCUCAAATT against Arhgap24,inactive: -0.617
22,GCCGUUCACUUUUCAGUAUTT against Slc35b3,inactive: 0.742

row,Sequence,z-score
1,GCCAAAUGAGUCAGAUACUTT against Ak3,inactive: -0.402
2,GCUGAAACUAACAUUUGAUTT against Anxa3,inactive: 0.146
3,GGUUGGCUUCAAAAAUAUGTT against Psmb1,inactive: -1.04
4,GGUUGACUUCAAUAGUUCUTT against Krtap4-7,inactive: 0.57
5,GGUGUAUGAGGUGCUGCUATT against Ushbp1,inactive: 1.06
6,GGCCACUGGCAAUGAAAAATT against Gata5,inactive: -0.203
7,GAUCACACUGAAAUCAUCATT against Nudt11,inactive: -1.71
8,GGGACUCACAUUUAAACAATT against Trmt10a,inactive: -0.12
9,GGAAGCAUGCAAUGAUAUUTT against 4933431E20Rik,active: -2.31
10,GGGAGCCAAACAAAAUUGCTT against Bet1,inactive: -1.14
11,GUCAUCAAACUAGGUGCUGTT against Olfr584,active: -2.22
12,GGCCAGUUUAUGGGAUUUUTT against Mis18a,inactive: 0.14
13,CGACCGUUUUAAAUCAUAATT against C5ar1,inactive: -0.745
14,GGAAGUGUAAAGAGUUUAUTT against Vat1l,inactive: 0.709
15,GGCUGUUGACAUUUUACAATT against Heatr1,inactive: 0.499
16,GGCAGAAUUCUCAGAGCUUTT against Syn2,inactive: -0.282
17,CUCUGUACUUGGGCAGGAATT against Cyp2c65,active: 2.9
18,CCACGGAGACAACUUAGUATT against Scfd2,inactive: 0.568
19,GGCAGAUACUGAUUUUCCGTT against Mcam,inactive: -1.07
20,GGAAAAACUGGUCUAUCAATT against Polr3f,inactive: 1.47
21,GGAGUGGCCAUUAAAUUUATT against Slc17a8,active: 2.75
22,UUCUAAUUGUCACUUGGUGTT against Olfr1474,inactive: -0.133

row,Sequence,z-score
1,GGUGACGGCUACACUUUUCTT against Grk3,inactive: -1.64
2,GGUAAUGUUAGCAGAACAATT against Ifih1,inactive: 0.825
3,CCAGUAUUCCUGAAAAUGATT against Tfg,inactive: -1.81
4,GGUGUUGUGAGUGAAGAGGTT against Elmod3,inactive: 0.252
5,GCUACCAAAGGAAUUUUGATT against Cul4a,inactive: 0.627
6,GGAGAUGGAAUGAAGUAUUTT against Fbxl21,inactive: 0.344
7,GGAGGACAGGAAAACAGAATT against H2-Ke6,inactive: -1.36
8,GAAAAAUACCCUGGCACUGTT against Olfr823,inactive: -0.349
9,GGAGAAGUAUGACAGAAUUTT against Ano9,inactive: 0.0361
10,CCGAAUCUGUCGUAUCACUTT against Dvl2,inactive: -0.414
11,GGAUGUUGGUCUCACAUCGTT against Bmpr2,inactive: -0.605
12,GGUUCUAAAUCAGAAGUGCTT against Tyw5,active: -2.08
13,GGAGUGAGAUUGUUAACAUTT against Ank1,inactive: 0.825
14,CCUAUAGUCUCUGUCAUUUTT against St6galnac5,inactive: -0.0318
15,GGUGCUUCUGGGAAACUUCTT against Rbm25,inactive: -1.12
16,CCCUGUGGGCCUUUAGUAUTT against Xlr4c,inactive: -1.1
17,GGUUGCGAUGAGGAGACUATT against Olfr1318,inactive: -0.0867
18,GGGCUGAAGUGAAACCAGATT against D930048N14Rik,inactive: 0.415
19,GGUUAUGAAGGUGUAUACUTT against Notch1,inactive: 0.474
